Some of the results follow. These are further read-outs of the screen, such as a control signal, another cell line or another target. No call is given for them. Most of these compounds were active or inconclusive in the main read-out, so they are no random draw. Potencies come from curve fits of mixed quality, noted in brackets.
Experiment: qHTS Assay to Find Inhibitors of Chronic Active B-Cell Receptor Signaling
Conditions: ABC-DLBCL IkBa-CBG/CBR reporter, luminescence ratio (green luciferase fused to IkBa over red control in TMD8 lymphoma cells), 4 h; measured here: CBR red luminescence, cell number
Method in brief: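 Concentration-response series (up to 46 uM) were applied to TMD8 dual-reporter cells for 4 h at 37C with doxycycline. Green/red ratio, after filter-overlap correction, defined %Activity; red signal alone was normalised to basal cells and zero luminescence.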

Structure (SMILES) | AC50
COc1cccc(C2C3=C(N=c4s/c(=C\c5ccc(OCC(=O)O)cc5)c(=O)n42)c2ccccc2CC3)c1 (stereo not drawn) | 20 µM [falling, partial curve, poor fit]
CCOC(=O)c1sc(N2C(=O)C(O)=C(C(=O)c3ccc(C)o3)C2c2cccc([N+](=O)[O-])c2)nc1C (stereo not drawn) | 8.91 µM [falling, partial curve]
COc1cc(NS(=O)(=O)c2ccc(NC(=S)NC(=O)c3sc4ccccc4c3Cl)cc2)nc(OC)n1 | 8.2 µM [falling, partial curve]

Source: PubChem BioAssay AID493014 (National Center for Advancing Translational Sciences (NCATS), 2011)
